# PubChem BioAssay AID1259405, NCATS – 2018
# Assay: 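Mouse-designed siRNAs used to find CHO productivity engineering targets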 (primary screen)
# Cell system: Chinese hamster CHO-K1 ovary cells with stable secreted eGFP expression
# Knock-down reagent: single siRNA against mouse genes, 0.8 pmol siRNA per well (2 µl of 400 nM stock)
# Duration: 3 days
# Measured: 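Per-well intracellular GFP measured by laser scanning cytometry, plus viability from ATP luminescence, each relative to plate median of non-targeting control wells, in %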
# Scale: GFP, % of control: higher = more GFP per well, higher productivity; viability (ATP), % of control: higher = more viable cells (more ATP)
# Rule for the call: 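a knock-down is called active if GFP reaches 120% or more of non-targeting control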
# This is an unselected part of about 50,000 reagents tested. About 4,000 of all reagents (8%) count as active. 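Mouse siRNA library applied to hamster cells; one well for each siRNA.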 The numbers tell different reagents against one gene apart.
"GFP, % of control","viability (ATP), % of control",Call,gene knocked down,reagent
85.4,75.7,inactive,Trmt44 (tRNA methyltransferase 44),1
39,52.1,inactive,Trmt44 (tRNA methyltransferase 44),2
96.1,101,inactive,Trmt44 (tRNA methyltransferase 44),3
43.3,58.1,inactive,Mbtd1 (mbt domain containing 1),1
64.7,84.9,inactive,Mbtd1 (mbt domain containing 1),2
83.1,81.4,inactive,Mbtd1 (mbt domain containing 1),3
37.7,21.6,inactive,Kndc1 (kinase non-catalytic C-lobe domain (KIND) containing 1),1
81.8,70.7,inactive,Kndc1 (kinase non-catalytic C-lobe domain (KIND) containing 1),2
110,76.9,inactive,Kndc1 (kinase non-catalytic C-lobe domain (KIND) containing 1),3
68.4,65,inactive,Adamts5 (ADAM metallopeptidase with thrombospondin type 1 motif 5),1
42.9,21.2,inactive,Adamts5 (ADAM metallopeptidase with thrombospondin type 1 motif 5),2
86.2,54.4,inactive,Adamts5 (ADAM metallopeptidase with thrombospondin type 1 motif 5),3
96.9,110,inactive,"Rnaseh2a (ribonuclease H2, large subunit)",1
47.3,57.3,inactive,"Rnaseh2a (ribonuclease H2, large subunit)",2
63.5,55.2,inactive,"Rnaseh2a (ribonuclease H2, large subunit)",3
98.3,75.5,inactive,Atg12 (autophagy related 12),1
105,102,inactive,Atg12 (autophagy related 12),2
54,63.2,inactive,Atg12 (autophagy related 12),3
150,89.6,active,Ostm1 (osteopetrosis associated transmembrane protein 1),1
102,73.1,inactive,Ostm1 (osteopetrosis associated transmembrane protein 1),2
130,79.5,active,Ostm1 (osteopetrosis associated transmembrane protein 1),3
138,97.8,active,Spaca1 (sperm acrosome associated 1),1
114,96.1,inactive,Spaca1 (sperm acrosome associated 1),2
108,101,inactive,Spaca1 (sperm acrosome associated 1),3
107,107,inactive,"Pla2g15 (phospholipase A2, group XV)",1
65.3,77.2,inactive,"Pla2g15 (phospholipase A2, group XV)",2
61.6,61.7,inactive,"Pla2g15 (phospholipase A2, group XV)",3
60.8,64.3,inactive,Fhl5 (four and a half LIM domains 5),1
111,80.4,inactive,Fhl5 (four and a half LIM domains 5),2
49.8,70.4,inactive,"Kcnip3 (Kv channel interacting protein 3, calsenilin)",1
76.1,58,inactive,"Kcnip3 (Kv channel interacting protein 3, calsenilin)",2
71.2,79.7,inactive,"Kcnip3 (Kv channel interacting protein 3, calsenilin)",3
94.7,56.8,inactive,Kcp (kielin/chordin-like protein),1
70.3,40.2,inactive,Kcp (kielin/chordin-like protein),2
193,108,active,Kcp (kielin/chordin-like protein),3
102,78.6,inactive,1810065E05Rik (RIKEN cDNA 1810065E05 gene),1
115,90.5,inactive,1810065E05Rik (RIKEN cDNA 1810065E05 gene),2
61.7,63.1,inactive,1810065E05Rik (RIKEN cDNA 1810065E05 gene),3
99.6,101,inactive,Slc46a2,1
66.5,77,inactive,Slc46a2,2
84,61.3,inactive,Slc46a2,3
108,84.3,inactive,Ndrg1 (N-myc downstream regulated gene 1),1
46.4,32.8,inactive,Ndrg1 (N-myc downstream regulated gene 1),2
56.5,76.4,inactive,Ndrg1 (N-myc downstream regulated gene 1),3
40.9,54.8,inactive,Ndrg1 (N-myc downstream regulated gene 1),4
80.7,71.6,inactive,Ndrg1 (N-myc downstream regulated gene 1),5
78.8,51.5,inactive,Ndrg1 (N-myc downstream regulated gene 1),6
73.5,56.1,inactive,"Agtrap (angiotensin II, type I receptor-associated protein)",1
66.2,73,inactive,"Agtrap (angiotensin II, type I receptor-associated protein)",2
75.8,86,inactive,"Agtrap (angiotensin II, type I receptor-associated protein)",3
64,87.8,inactive,Kdelr2,1
78.8,66.3,inactive,Kdelr2,2
70.5,69.7,inactive,Kifc3 (kinesin family member C3),1
61.3,48.7,inactive,Kifc3 (kinesin family member C3),2
101,108,inactive,"B3gat1 (beta-1,3-glucuronyltransferase 1)",1
78.3,117,inactive,"B3gat1 (beta-1,3-glucuronyltransferase 1)",2
93.9,109,inactive,"B3gat1 (beta-1,3-glucuronyltransferase 1)",3
85.8,66.3,inactive,Mrps22 (mitochondrial ribosomal protein S22),1
91.7,110,inactive,Mrps22 (mitochondrial ribosomal protein S22),2
94.7,68.4,inactive,Mrps22 (mitochondrial ribosomal protein S22),3
90.6,79.3,inactive,Ube2d2b (ubiquitin-conjugating enzyme E2D 2B),1
104,81.7,inactive,Ube2d2b (ubiquitin-conjugating enzyme E2D 2B),2
86.4,65.1,inactive,Ube2d2b (ubiquitin-conjugating enzyme E2D 2B),3
58.5,110,inactive,Coa6 (cytochrome c oxidase assembly factor 6),1
87.6,74.2,inactive,Coa6 (cytochrome c oxidase assembly factor 6),2
79.9,78.5,inactive,Coa6 (cytochrome c oxidase assembly factor 6),3
60.4,64.3,inactive,Lhx5 (LIM homeobox protein 5),1
60.7,61.8,inactive,Lhx5 (LIM homeobox protein 5),2
46.5,79.5,inactive,Lhx5 (LIM homeobox protein 5),3
45.7,38.8,inactive,Lcn3 (lipocalin 3),1
66.5,53.3,inactive,Lcn3 (lipocalin 3),2
128,83.9,active,Lcn3 (lipocalin 3),3
120,92.6,inactive,Or6c33 (olfactory receptor family 6 subfamily C member 33),1
106,74.5,inactive,Or6c33 (olfactory receptor family 6 subfamily C member 33),2
69.2,113,inactive,Or6c33 (olfactory receptor family 6 subfamily C member 33),3
30.4,26.9,inactive,Vit (vitrin),1
107,82.6,inactive,Vit (vitrin),2
83.1,81,inactive,Vit (vitrin),3
66.6,72.6,inactive,Pfn3 (profilin 3),1
52.3,46.6,inactive,Pfn3 (profilin 3),2
55.3,68.4,inactive,Pfn3 (profilin 3),3
99.4,131,inactive,"Lamb2 (laminin, beta 2)",1
86.7,98.7,inactive,"Lamb2 (laminin, beta 2)",2
82.1,112,inactive,Cp (ceruloplasmin),1
57.2,55.3,inactive,Cp (ceruloplasmin),2
59.9,47.2,inactive,Cp (ceruloplasmin),3

Just “viability (ATP), % of control”, for 12 of the entries above:
Fhl5 (four and a half LIM domains 5) #2: 80.4
Kcnip3 (Kv channel interacting protein 3, calsenilin) #1: 70.4
Kcnip3 (Kv channel interacting protein 3, calsenilin) #2: 58
Kcnip3 (Kv channel interacting protein 3, calsenilin) #3: 79.7
Kcp (kielin/chordin-like protein) #1: 56.8
Kcp (kielin/chordin-like protein) #2: 40.2
Kcp (kielin/chordin-like protein) #3: 108
1810065E05Rik (RIKEN cDNA 1810065E05 gene) #1: 78.6
1810065E05Rik (RIKEN cDNA 1810065E05 gene) #2: 90.5
1810065E05Rik (RIKEN cDNA 1810065E05 gene) #3: 63.1
Slc46a2 #1: 101
Slc46a2 #2: 77
